The supplement of paper PMC12823440, “Inhibitors supercharge kinase turnover through native proteolytic circuits” (Nature, 2025)
Some of the results follow. The calls rarely recur for the same compound in another form.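 In K562 cells expressing nanoluciferase-fused kinases, luminescence was recorded at 4 h intervals between 2 and 18 h, normalized as percent of control with DMSO at 100% and a positive control at 0%. A significant (2 sigma) signal drop marks a time point as decreased. The authors' rule for a hit is not shown and takes in more than the number of time points.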

Protein sequences, listed by entry. Tags and fused reporters are not part of them. Lines headed by an entry give the natural chain unless they say otherwise; changes in a name come on top.
UniProt O75460: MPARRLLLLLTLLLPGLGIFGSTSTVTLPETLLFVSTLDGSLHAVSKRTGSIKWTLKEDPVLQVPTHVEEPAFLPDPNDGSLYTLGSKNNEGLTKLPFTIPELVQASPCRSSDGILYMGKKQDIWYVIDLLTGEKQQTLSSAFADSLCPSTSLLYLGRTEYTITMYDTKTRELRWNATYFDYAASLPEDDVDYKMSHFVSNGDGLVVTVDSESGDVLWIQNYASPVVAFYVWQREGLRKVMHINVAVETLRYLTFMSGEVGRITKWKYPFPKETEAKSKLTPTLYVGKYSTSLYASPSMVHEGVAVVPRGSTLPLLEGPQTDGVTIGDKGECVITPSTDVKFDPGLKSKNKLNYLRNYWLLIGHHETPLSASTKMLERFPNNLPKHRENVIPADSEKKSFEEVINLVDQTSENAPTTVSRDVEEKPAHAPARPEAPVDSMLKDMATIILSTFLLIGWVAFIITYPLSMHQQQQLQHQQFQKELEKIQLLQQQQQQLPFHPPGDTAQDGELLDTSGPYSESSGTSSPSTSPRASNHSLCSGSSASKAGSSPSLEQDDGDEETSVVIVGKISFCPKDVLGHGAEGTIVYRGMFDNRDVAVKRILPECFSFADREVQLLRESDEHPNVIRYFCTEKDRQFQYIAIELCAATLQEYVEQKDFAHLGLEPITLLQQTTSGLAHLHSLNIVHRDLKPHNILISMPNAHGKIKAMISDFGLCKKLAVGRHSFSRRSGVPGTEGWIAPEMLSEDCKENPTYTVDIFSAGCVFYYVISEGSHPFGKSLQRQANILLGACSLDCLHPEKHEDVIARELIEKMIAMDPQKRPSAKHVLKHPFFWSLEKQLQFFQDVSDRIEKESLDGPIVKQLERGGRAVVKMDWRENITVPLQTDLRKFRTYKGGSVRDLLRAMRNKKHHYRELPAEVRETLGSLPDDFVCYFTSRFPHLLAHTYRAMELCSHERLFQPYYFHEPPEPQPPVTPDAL
UniProt P11362, whole entry, looked up: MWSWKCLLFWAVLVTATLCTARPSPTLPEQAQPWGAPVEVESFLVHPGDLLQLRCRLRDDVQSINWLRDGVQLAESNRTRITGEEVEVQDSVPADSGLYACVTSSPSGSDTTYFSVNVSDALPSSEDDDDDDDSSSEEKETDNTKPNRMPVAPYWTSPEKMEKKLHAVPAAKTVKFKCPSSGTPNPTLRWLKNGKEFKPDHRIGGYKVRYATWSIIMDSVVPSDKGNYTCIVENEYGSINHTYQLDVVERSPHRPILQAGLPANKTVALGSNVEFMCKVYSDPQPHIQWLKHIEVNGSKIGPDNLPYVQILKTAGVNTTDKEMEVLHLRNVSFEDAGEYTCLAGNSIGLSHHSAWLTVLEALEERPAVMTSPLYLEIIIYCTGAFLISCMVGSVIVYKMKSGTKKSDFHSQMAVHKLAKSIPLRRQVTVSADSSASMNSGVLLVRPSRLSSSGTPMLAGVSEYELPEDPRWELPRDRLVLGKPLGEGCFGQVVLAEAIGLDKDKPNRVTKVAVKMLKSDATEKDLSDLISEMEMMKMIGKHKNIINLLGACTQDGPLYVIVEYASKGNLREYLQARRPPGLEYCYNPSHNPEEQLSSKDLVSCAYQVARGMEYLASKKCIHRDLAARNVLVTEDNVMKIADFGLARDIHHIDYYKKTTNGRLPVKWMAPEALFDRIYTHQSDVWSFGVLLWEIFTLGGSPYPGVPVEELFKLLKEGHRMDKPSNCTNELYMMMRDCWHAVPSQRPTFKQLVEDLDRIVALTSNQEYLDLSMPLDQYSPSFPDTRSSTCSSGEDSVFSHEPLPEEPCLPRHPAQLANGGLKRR
UniProt P22607, whole entry, looked up: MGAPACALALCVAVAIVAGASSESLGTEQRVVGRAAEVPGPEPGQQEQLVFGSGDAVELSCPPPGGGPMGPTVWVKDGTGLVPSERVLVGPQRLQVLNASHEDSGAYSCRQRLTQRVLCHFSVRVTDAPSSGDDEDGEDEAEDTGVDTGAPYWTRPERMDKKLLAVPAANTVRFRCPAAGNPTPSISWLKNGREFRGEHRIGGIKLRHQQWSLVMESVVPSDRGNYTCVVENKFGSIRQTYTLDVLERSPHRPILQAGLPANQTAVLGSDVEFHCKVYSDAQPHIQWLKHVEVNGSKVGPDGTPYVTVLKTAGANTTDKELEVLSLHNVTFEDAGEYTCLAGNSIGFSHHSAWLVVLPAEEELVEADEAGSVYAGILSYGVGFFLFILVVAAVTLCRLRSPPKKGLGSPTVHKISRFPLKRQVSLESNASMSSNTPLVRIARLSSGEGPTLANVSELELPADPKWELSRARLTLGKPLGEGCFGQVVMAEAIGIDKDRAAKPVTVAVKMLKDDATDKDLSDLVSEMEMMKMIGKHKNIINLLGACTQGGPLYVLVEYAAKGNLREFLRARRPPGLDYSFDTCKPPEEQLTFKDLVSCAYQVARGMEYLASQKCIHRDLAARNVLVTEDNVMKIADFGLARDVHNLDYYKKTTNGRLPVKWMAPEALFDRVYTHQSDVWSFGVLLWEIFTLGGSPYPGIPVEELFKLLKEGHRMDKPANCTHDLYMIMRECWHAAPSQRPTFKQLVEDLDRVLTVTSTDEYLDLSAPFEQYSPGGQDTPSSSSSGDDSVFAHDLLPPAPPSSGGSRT
UniProt P23458: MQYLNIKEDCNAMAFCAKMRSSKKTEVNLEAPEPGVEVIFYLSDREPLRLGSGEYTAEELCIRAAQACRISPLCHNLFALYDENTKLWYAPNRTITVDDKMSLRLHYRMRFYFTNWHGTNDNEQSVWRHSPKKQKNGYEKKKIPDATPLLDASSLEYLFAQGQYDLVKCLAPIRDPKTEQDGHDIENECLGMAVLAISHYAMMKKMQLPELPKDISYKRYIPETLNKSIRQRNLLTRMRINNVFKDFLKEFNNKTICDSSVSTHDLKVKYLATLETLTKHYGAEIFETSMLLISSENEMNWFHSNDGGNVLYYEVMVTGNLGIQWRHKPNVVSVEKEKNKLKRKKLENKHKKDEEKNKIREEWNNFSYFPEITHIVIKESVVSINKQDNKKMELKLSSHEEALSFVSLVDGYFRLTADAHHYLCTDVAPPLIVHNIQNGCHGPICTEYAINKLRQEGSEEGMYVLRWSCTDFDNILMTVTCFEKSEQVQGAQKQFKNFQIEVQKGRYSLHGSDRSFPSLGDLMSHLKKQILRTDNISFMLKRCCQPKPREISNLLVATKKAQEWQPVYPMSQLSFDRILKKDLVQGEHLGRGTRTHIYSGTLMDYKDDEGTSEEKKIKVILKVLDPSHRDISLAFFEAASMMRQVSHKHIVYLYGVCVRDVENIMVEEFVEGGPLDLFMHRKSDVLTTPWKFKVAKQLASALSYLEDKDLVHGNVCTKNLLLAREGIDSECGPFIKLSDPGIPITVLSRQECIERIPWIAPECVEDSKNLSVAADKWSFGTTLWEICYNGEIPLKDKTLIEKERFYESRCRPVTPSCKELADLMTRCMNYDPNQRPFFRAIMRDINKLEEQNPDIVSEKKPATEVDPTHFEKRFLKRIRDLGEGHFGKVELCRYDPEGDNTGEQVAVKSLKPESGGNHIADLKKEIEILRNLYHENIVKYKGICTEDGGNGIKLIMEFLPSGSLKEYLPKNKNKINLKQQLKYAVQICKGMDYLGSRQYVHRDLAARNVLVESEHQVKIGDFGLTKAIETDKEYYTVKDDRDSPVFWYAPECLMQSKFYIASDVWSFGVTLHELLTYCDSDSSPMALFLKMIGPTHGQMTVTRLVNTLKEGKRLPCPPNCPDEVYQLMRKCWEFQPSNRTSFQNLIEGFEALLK
UniProt P53671: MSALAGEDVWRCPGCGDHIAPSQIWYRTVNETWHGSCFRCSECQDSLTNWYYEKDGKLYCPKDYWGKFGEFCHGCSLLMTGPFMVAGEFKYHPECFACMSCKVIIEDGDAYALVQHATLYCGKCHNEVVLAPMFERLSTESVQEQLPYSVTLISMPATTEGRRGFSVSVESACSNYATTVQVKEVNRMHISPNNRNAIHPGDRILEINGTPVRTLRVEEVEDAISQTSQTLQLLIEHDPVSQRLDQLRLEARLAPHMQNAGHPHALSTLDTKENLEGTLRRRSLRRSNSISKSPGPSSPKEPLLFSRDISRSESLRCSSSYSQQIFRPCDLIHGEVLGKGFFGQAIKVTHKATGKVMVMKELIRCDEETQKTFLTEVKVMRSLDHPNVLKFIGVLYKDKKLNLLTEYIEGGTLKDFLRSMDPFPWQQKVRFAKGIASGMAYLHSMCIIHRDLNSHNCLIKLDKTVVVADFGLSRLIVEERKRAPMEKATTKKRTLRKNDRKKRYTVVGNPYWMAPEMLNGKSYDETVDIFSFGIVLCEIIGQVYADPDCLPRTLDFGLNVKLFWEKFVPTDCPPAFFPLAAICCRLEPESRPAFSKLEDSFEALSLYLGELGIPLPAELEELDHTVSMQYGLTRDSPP
UniProt Q8IWU2: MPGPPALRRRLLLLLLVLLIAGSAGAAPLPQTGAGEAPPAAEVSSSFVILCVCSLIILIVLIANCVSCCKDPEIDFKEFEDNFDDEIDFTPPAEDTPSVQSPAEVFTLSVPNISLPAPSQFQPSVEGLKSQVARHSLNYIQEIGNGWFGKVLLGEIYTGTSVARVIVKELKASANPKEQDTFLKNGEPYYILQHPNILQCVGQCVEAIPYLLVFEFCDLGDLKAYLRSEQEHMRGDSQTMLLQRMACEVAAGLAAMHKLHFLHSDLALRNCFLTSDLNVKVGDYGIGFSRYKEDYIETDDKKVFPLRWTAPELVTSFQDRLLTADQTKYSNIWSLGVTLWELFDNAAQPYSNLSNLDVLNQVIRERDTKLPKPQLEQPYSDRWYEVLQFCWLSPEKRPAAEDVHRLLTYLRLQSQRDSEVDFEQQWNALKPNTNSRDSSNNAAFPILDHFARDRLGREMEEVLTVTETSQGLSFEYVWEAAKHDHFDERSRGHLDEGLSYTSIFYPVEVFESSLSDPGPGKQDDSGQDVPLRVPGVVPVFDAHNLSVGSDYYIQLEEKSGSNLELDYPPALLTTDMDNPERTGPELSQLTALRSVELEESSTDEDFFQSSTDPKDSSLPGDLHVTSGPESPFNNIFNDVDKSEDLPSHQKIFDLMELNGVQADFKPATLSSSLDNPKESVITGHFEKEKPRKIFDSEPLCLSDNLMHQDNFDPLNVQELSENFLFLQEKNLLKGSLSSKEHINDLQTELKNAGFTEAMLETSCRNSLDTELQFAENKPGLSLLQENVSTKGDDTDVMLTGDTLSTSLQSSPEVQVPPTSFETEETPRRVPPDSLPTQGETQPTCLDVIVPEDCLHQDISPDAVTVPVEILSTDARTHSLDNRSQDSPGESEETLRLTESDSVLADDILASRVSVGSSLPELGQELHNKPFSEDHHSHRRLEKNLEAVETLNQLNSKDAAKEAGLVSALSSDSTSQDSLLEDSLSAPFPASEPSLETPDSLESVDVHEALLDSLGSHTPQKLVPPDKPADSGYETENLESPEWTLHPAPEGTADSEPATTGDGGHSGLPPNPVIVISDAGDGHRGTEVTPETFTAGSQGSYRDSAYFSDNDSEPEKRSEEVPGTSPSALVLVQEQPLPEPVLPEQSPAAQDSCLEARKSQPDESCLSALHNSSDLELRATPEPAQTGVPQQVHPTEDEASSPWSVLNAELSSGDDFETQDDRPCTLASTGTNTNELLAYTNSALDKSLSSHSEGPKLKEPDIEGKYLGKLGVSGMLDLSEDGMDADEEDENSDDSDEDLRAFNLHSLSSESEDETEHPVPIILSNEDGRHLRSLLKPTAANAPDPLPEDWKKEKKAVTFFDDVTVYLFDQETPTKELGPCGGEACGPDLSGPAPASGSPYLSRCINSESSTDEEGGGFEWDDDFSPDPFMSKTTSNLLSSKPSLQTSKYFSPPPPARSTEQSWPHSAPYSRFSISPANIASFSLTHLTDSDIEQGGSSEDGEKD
UniProt P07948: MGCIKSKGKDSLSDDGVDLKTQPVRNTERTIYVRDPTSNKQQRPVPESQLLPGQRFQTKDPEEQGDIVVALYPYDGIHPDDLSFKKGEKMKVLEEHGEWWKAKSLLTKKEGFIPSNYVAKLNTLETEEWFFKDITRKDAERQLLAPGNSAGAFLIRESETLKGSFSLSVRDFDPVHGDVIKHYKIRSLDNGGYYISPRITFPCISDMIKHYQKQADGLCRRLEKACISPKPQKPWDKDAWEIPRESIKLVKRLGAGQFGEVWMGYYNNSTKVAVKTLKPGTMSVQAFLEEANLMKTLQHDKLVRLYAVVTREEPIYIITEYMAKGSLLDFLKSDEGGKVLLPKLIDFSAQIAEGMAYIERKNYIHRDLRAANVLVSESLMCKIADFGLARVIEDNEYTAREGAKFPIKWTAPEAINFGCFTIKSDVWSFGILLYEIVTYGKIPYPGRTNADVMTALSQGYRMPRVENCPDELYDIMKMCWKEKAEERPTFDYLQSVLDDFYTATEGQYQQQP

What was measured:
Test in all cases: kinase-Nluc reporter destabilization hit call (1 = scored as downregulated) (binary); higher = compound decreases kinase abundance
Conditions in all cases: K562; 2-18 h
ERN1 = ERN1 (UniProt O75460)
FGFR1 = FGFR1 (UniProt P11362)
FGFR2 = FGFR2 (UniProt P21802)
FGFR3 = FGFR3 (UniProt P22607)
FGR = FGR (UniProt P09769)
FLT3 = FLT3 (UniProt P36888)
FYN = FYN (UniProt P06241)
GSK3A = GSK3A (UniProt P49840)
HER2 = HER2 (UniProt P04626)
INSRR = INSRR (UniProt P14616)
IRAK3 = IRAK3 (UniProt Q9Y616)
JAK1 = JAK1 (UniProt P23458)
LCK = LCK (UniProt P06239)
LIMK1 = LIMK1 (UniProt P53667)
LIMK2 = LIMK2 (UniProt P53671)
LMTK2 = LMTK2 (UniProt Q8IWU2)
LYN = LYN (UniProt P07948)
MAP2K1 = MAP2K1 (UniProt Q02750)
MAP2K2 = MAP2K2 (UniProt P36507)
MAP4K2 = MAP4K2 (UniProt Q12851)

Measured: kinase-Nluc reporter destabilization hit call

CCS(=O)(=O)c1ccc(Oc2cc(O[C@@H](C)CO)cc(C(=O)Nc3ccn(C)n3)c2)cn1 (10 µM)
inactive: ERN1 = 0 | FGFR1 = 0 | FGFR2 = 0 | FGFR3 = 0 | FGR 0 | FLT3 = 0 | FYN 0 | GSK3A 0 | HER2 = 0 | INSRR 0 | IRAK3 = 0 | JAK1 = 0 | LCK 0 | LIMK1 = 0 | LIMK2 = 0 | LMTK2 = 0 | LYN 0 | MAP2K1 = 0 | MAP2K2 = 0 | MAP4K2 = 0

O=C(Nc1nccs1)C(c1cc(F)ccc1O)N1Cc2ccc(-c3ccc(N4CCNCC4)cc3)cc2C1=O (racemic) (10 µM)
inactive: ERN1 = 0 | FGFR1 = 0 | FGFR2 = 0 | FGFR3 = 0 | FGR 0 | FLT3 = 0 | FYN 0 | GSK3A 0 | HER2 = 0 | INSRR 0 | IRAK3 = 0 | JAK1 = 0 | LCK 0 | LIMK1 = 0 | LIMK2 = 0 | LMTK2 = 0 | LYN 0 | MAP2K1 = 0 | MAP2K2 = 0 | MAP4K2 = 0

C=CC(=O)N[C@H]1CCOC[C@H]1Nc1ncc2cc(-c3c(Cl)c(OC)cc(OC)c3Cl)ccc2n1 [Fisogatinib] (10 µM)
inactive: ERN1 = 0 | FGFR1 = 0 | FGFR2 = 0 | FGFR3 = 0 | FGR 0 | FLT3 = 0 | FYN 0 | GSK3A 0 | HER2 = 0 | INSRR 0 | IRAK3 = 0 | JAK1 = 0 | LCK 0 | LIMK1 = 0 | LIMK2 = 0 | LMTK2 = 0 | LYN 0 | MAP2K1 = 0 | MAP2K2 = 0 | MAP4K2 = 0

CNS(=O)(=O)Nc1nccc(Cc2c(C)c3ccc(Oc4ncccn4)cc3oc2=O)c1F (10 µM)
inactive: ERN1 = 0 | FGFR1 = 0 | FGFR2 = 0 | FGFR3 = 0 | FGR 0 | FLT3 = 0 | FYN 0 | GSK3A 0 | HER2 = 0 | INSRR 0 | IRAK3 = 0 | JAK1 = 0 | LCK 0 | LIMK1 = 0 | LIMK2 = 0 | LMTK2 = 0 | LYN 0 | MAP2K1 = 0 | MAP2K2 = 0 | MAP4K2 = 0

O=c1cc(-c2ccc(O)cc2)oc2cc(O)c(O)c(O)c12 [Scutellarein] (10 µM)
inactive: ERN1 = 0 | FGFR1 = 0 | FGFR2 = 0 | FGFR3 = 0 | FGR 0 | FLT3 = 0 | FYN 0 | GSK3A 0 | HER2 = 0 | INSRR 0 | IRAK3 = 0 | JAK1 = 0 | LCK 0 | LIMK1 = 0 | LIMK2 = 0 | LMTK2 = 0 | LYN 0 | MAP2K1 = 0 | MAP2K2 = 0 | MAP4K2 = 0

C=CC(=O)Nc1cc(C(=O)NC)cc(-c2n[nH]c3ccccc23)c1 (10 µM)
inactive: ERN1 = 0 | FGFR1 = 0 | FGFR2 = 0 | FGFR3 = 0 | FGR 0 | FLT3 = 0 | FYN 0 | GSK3A 0 | HER2 = 0 | INSRR 0 | IRAK3 = 0 | JAK1 = 0 | LCK 0 | LIMK1 = 0 | LIMK2 = 0 | LMTK2 = 0 | LYN 0 | MAP2K1 = 0 | MAP2K2 = 0 | MAP4K2 = 0

CN(C)CCCn1cc(C2=C(c3c[nH]c4ccccc34)C(=O)NC2=O)c2ccccc21 [Bisindolylmaleimide I] (2.5 µM)
inactive: ERN1 = 0 | FGFR1 = 0 | FGFR2 = 0 | FGFR3 = 0 | FGR 0 | FLT3 = 0 | FYN 0 | GSK3A 0 | HER2 = 0 | INSRR 0 | IRAK3 = 0 | JAK1 = 0 | LCK 0 | LIMK1 = 0 | LIMK2 = 0 | LMTK2 = 0 | LYN 0 | MAP2K1 = 0 | MAP2K2 = 0 | MAP4K2 = 0

O=C(Nc1ncc(SCCN2CCCC2)s1)[C@]1(c2ccc(S(=O)(=O)C3CC3)cc2)C[C@H]1C1CCCCC1 [Globalagliatin] (2.5 µM)
inactive: ERN1 = 0 | FGFR1 = 0 | FGFR2 = 0 | FGFR3 = 0 | FGR 0 | FLT3 = 0 | FYN 0 | GSK3A 0 | HER2 = 0 | INSRR 0 | IRAK3 = 0 | JAK1 = 0 | LCK 0 | LIMK1 = 0 | LIMK2 = 0 | LMTK2 = 0 | LYN 0 | MAP2K1 = 0 | MAP2K2 = 0 | MAP4K2 = 0

C[C@H](Nc1ccc2c(c1)OCCn1cc(N3C(=O)OC[C@H]3C(F)F)nc1-2)C(N)=O (10 µM)
inactive: ERN1 = 0 | FGFR1 = 0 | FGFR2 = 0 | FGFR3 = 0 | FGR 0 | FLT3 = 0 | FYN 0 | GSK3A 0 | HER2 = 0 | INSRR 0 | IRAK3 = 0 | JAK1 = 0 | LCK 0 | LIMK1 = 0 | LIMK2 = 0 | LMTK2 = 0 | LYN 0 | MAP2K1 = 0 | MAP2K2 = 0 | MAP4K2 = 0

Cc1cc(F)c(Nc2ncnc3cc(OCc4ccccc4)ccc23)cc1O (10 µM)
inactive: ERN1 = 0 | FGFR1 = 0 | FGFR2 = 0 | FGFR3 = 0 | FGR 0 | FLT3 = 0 | FYN 0 | GSK3A 0 | HER2 = 0 | INSRR 0 | IRAK3 = 0 | JAK1 = 0 | LCK 0 | LIMK1 = 0 | LIMK2 = 0 | LMTK2 = 0 | LYN 0 | MAP2K1 = 0 | MAP2K2 = 0 | MAP4K2 = 0

CC(C)[C@H](CO)Nc1nc(Nc2ccc(C(=O)O)c(Cl)c2)c2ncn(C(C)C)c2n1 [Purvalanol B] (10 µM)
inactive: ERN1 = 0 | FGFR1 = 0 | FGFR2 = 0 | FGFR3 = 0 | FGR 0 | FLT3 = 0 | FYN 0 | GSK3A 0 | HER2 = 0 | INSRR 0 | IRAK3 = 0 | JAK1 = 0 | LCK 0 | LIMK1 = 0 | LIMK2 = 0 | LMTK2 = 0 | LYN 0 | MAP2K1 = 0 | MAP2K2 = 0 | MAP4K2 = 0

O=C1NCCSc2c1sc1ccc(O)cc21 (2.5 µM)
inactive: ERN1 = 0 | FGFR1 = 0 | FGFR2 = 0 | FGFR3 = 0 | FGR 0 | FLT3 = 0 | FYN 0 | GSK3A 0 | HER2 = 0 | INSRR 0 | IRAK3 = 0 | JAK1 = 0 | LCK 0 | LIMK1 = 0 | LIMK2 = 0 | LYN 0 | MAP2K1 = 0 | MAP2K2 = 0 | MAP4K2 = 0
active: LMTK2 = 1

CC(C)(C)NS(=O)(=O)c1cncc(-c2cc(F)c3nc(N)nn3c2)c1 (10 µM)
inactive: ERN1 = 0 | FGFR1 = 0 | FGFR2 = 0 | FGFR3 = 0 | FGR 0 | FLT3 = 0 | FYN 0 | GSK3A 0 | HER2 = 0 | INSRR 0 | IRAK3 = 0 | JAK1 = 0 | LCK 0 | LIMK1 = 0 | LIMK2 = 0 | LMTK2 = 0 | LYN 0 | MAP2K1 = 0 | MAP2K2 = 0 | MAP4K2 = 0

O=C(N/N=C/c1ccc([N+](=O)[O-])o1)c1ccc(O)cc1 [Nifuroxazide] (10 µM)
inactive: ERN1 = 0 | FGFR1 = 0 | FGFR2 = 0 | FGFR3 = 0 | FGR 0 | FLT3 = 0 | FYN 0 | GSK3A 0 | HER2 = 0 | INSRR 0 | IRAK3 = 0 | JAK1 = 0 | LCK 0 | LIMK1 = 0 | LIMK2 = 0 | LMTK2 = 0 | LYN 0 | MAP2K1 = 0 | MAP2K2 = 0 | MAP4K2 = 0

Arranged by length of the SMILES (smallest number first): three of the compounds above
O=C(N/N=C/c1ccc([N+](=O)[O-])o1)c1ccc(O)cc1 [Nifuroxazide] (10 µM)
inactive: ERN1 = 0 | FGFR1 = 0 | FGFR2 = 0 | FGFR3 = 0 | FGR 0 | FLT3 = 0 | FYN 0 | GSK3A 0 | HER2 = 0 | INSRR 0 | IRAK3 = 0 | JAK1 = 0 | LCK 0 | LIMK1 = 0 | LIMK2 = 0 | LMTK2 = 0 | LYN 0 | MAP2K1 = 0 | MAP2K2 = 0 | MAP4K2 = 0

C[C@H](Nc1ccc2c(c1)OCCn1cc(N3C(=O)OC[C@H]3C(F)F)nc1-2)C(N)=O (10 µM)
inactive: ERN1 = 0 | FGFR1 = 0 | FGFR2 = 0 | FGFR3 = 0 | FGR 0 | FLT3 = 0 | FYN 0 | GSK3A 0 | HER2 = 0 | INSRR 0 | IRAK3 = 0 | JAK1 = 0 | LCK 0 | LIMK1 = 0 | LIMK2 = 0 | LMTK2 = 0 | LYN 0 | MAP2K1 = 0 | MAP2K2 = 0 | MAP4K2 = 0

C=CC(=O)N[C@H]1CCOC[C@H]1Nc1ncc2cc(-c3c(Cl)c(OC)cc(OC)c3Cl)ccc2n1 [Fisogatinib] (10 µM)
inactive: ERN1 = 0 | FGFR1 = 0 | FGFR2 = 0 | FGFR3 = 0 | FGR 0 | FLT3 = 0 | FYN 0 | GSK3A 0 | HER2 = 0 | INSRR 0 | IRAK3 = 0 | JAK1 = 0 | LCK 0 | LIMK1 = 0 | LIMK2 = 0 | LMTK2 = 0 | LYN 0 | MAP2K1 = 0 | MAP2K2 = 0 | MAP4K2 = 0

More structures

C=CC(=O)N1CCC[C@@H](n2c(=O)n(-c3ccc(Oc4ccccc4)cc3)c3c(N)nccc32)C1 [Tolebrutinib] (10 µM)
inactive: ERN1 = 0 | FGFR1 = 0 | FGFR2 = 0 | FGFR3 = 0 | FGR 0 | FLT3 = 0 | FYN 0 | GSK3A 0 | HER2 = 0 | INSRR 0 | IRAK3 = 0 | JAK1 = 0 | LCK 0 | LIMK1 = 0 | LIMK2 = 0 | LMTK2 = 0 | LYN 0 | MAP2K1 = 0 | MAP2K2 = 0 | MAP4K2 = 0
